# At least one structure is not confirmed: it was looked up by name or label, or the drawing left a doubt.
# Assays:
# [1] = test system: Staphylococcus aureus (STAU); assay: MADM resistance phenotype test, respiratory specimens; assay type: cell-based; conditions: all STAU-containing specimens
# Description: (§1) (ABCC). Concurrent quantitative culture (qCx) was performed on specimens.
# (§2) 20 μL samples of prepared specimen were pipetted into independent flowcell channels and a low-voltage electrical field was applied for 5 minutes. The electrical field concentrated bacteria onto a functional surface coating that immobilized the bacteria on the lower flowcell surface. Each flowcell channel received only one type of test reagent solution that contained a selective agent if required (only for channels used to test AB, sulbactam 32 μg/mL).
# (§3) The instrument acquired images at 10-minutes intervals for 180 minutes, using 10 fields of view in each flowcell channel through a 20× objective. Imaging used darkfield illumination. Identification variables included response to selective agents (AB with sulbactam), cell morphology, growth morphology, and growth rate.
# (§4) Identification algorithms applied to each individual immobilized bacterial cell. The system measured the amount of change in mass over time to compute growth rates. Identification consisted of computing and combining probability scores for morphology, response to selective media, and growth rates to produce a receiver operating characteristic curve (ROC) to derive classification criteria.
# S. maltophilia (Steno) = assay: MADM (BACcel) growth analysis sensitivity, surveillance mini-BAL; assay type: cell-based
# Description: Adult MICU patients with identified surrogate were included within 72 hours of intubation and if anticipated to require MV for >48 h. Moribund state or pregnancy were exclusions. Surveillance mini-BAL (Combicath, Plastimed) was performed on Day 1, 3, 5, 7 and 10 of MV. Samples were split and processed for both a) routine respiratory quantitative microbiological culture and sensitivity assays (>48 h result availability) and b) rapid (<8 h) flowcell/surface-capture assays using the MADM system. Viable microorganisms were identified using growth analysis enhanced by a focused VAP antibody panel (S. aureus, P. aeruginosa, A. baumannii). Untypable organisms were also reported. Sensitivity was assessed using growth analysis. Attending physicians were blinded to MADM system results.
# BAL sample were prepared, removing debris and separating microorganisms from other sample material. Sample microorganisms were introduced into a multichannel fluidic cassette as described elsewhere herein. Bacteria were concentrated and retained on the lower surface of all flowcells using low-voltage electrical field (5 min). Antibody labeling of bacteria in flowcells was used to aid identification.
# The automated digital microscopy system was used to perform darkfield imaging of 10 fields of view every 10 minutes for 180 minutes in each flowcell channel. Initial epifluorescence imaging was also performed for antibody detection. […] Identification consisted of probability scores based on microorganism morphology and growth rates. Antibody labeling identification data was also incorporated. Observed microorganisms were then classified as STAU, PSAE, or non-target. Antibiotic responses were used to aid identification when appropriate. Quantitation was performed by counting identified microorganism and computing original specimen CFU/mL.
# Klebsiella pneumoniae = assay: Growth and kill curves by integrated intensity tracking; assay type: cell-based; conditions: varying concentrations of imipenem, FIG. 9A
# [2] = test system: Pseudomonas aeruginosa (PSAE); assay: MADM resistance phenotype test, respiratory specimens; assay type: cell-based; conditions: all PSAE-containing specimens
# Description: as §1, §2, §3, §4
# [3] = test system: Acinetobacter spp. (ABCC); assay: as above; assay type: cell-based, Acinetobacter sp.; conditions: all ABCC-containing specimens
# [4] = specimen 006-D1, BACcel ID Steno, 7.68 × 10^5 CFU/ml
# [5] = specimen 006-D3, BACcel ID Steno, 1.60 × 10^4 CFU/ml
SMILES,CLI-resistance expression [1],"Phenotype, sensitivity (S. maltophilia (Steno); [4])","Phenotype, sensitivity (S. maltophilia (Steno); [5])",kill rates (decrease in integrated intensity after introduction of antibiotic) (Klebsiella pneumoniae),susceptibility [2],susceptibility [3]
"CCC[C@@H]1C[C@@H](C(=O)N[C@@H]([C@H]2O[C@H](SC)[C@H](O)[C@@H](O)[C@H]2O)[C@H](C)Cl)N(C)C1 [CLI, clindamycin]",None of the STAU expressed CLI-resistance,"growth, TZP-","growth, TZP-",–,–,–
"C[C@@H](O)[C@H]1C(=O)N2C(C(=O)O)=C(SCCN=CN)C[C@H]12 [IMP, imipenem]",–,"growth, TZP-","growth, TZP-",dose dependent kill rates,susceptible,susceptible

# Source: patent US9677109B2, “Rapid determination of microbial growth and antimicrobial susceptibility” (priority 2013, dated 2017)
